pIC50: −log10 of the molar value.
What was measured:
[1] = tested on: SFV-Rluc; conditions: read-out: SFV IC50
[2] = tested on: BHK cells; assay: Cell viability ATP assay, BHK cells; assay type: cell-based, hamster; conditions: 48 h exposure of BHK cells

SMILES: Cc1cc(=O)oc2cc(O)ccc12 [Methyl umbelliferone]
- pIC50 [1]: 4.73
- pIC50 [2]: 3.75
